# Measured values published in paper PMC9947307.
# Protein sequences, listed by entry. Tags and fused reporters are not part of them.
# UniProt P28033: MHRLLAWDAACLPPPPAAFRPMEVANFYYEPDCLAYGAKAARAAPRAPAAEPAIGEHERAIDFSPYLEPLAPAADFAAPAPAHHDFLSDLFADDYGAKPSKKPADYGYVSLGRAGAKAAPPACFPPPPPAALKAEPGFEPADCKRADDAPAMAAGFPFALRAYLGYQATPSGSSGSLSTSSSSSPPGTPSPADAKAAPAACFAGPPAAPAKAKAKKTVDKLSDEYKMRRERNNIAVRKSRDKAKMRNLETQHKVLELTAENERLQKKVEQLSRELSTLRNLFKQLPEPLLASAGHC
# UniProt Q04207: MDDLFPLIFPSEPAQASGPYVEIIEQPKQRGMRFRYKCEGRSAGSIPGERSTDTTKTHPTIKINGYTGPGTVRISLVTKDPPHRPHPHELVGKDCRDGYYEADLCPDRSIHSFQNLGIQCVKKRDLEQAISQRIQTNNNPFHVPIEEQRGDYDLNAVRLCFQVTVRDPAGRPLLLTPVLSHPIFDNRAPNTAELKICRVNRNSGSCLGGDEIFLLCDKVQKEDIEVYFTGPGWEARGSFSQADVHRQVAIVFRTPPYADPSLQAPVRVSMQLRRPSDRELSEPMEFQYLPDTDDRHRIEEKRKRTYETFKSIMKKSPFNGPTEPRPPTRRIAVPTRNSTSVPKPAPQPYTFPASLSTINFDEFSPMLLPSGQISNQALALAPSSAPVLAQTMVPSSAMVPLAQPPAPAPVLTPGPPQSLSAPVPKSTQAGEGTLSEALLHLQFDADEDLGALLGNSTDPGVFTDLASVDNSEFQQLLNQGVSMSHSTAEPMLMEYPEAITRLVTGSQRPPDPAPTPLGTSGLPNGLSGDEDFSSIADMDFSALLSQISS
# No constants are given. Whether binding was seen depends on the method and setting. Binding seen in cells or lysates may run through a third protein. Some results given as binding are weak or reduced against the parent protein; the word gives no strength.
# Molecular target: T1, S100A9 (mouse (endogenous in BCG-elicited peritoneal neutrophils)) (UniProt P31725)
# T1 sequence: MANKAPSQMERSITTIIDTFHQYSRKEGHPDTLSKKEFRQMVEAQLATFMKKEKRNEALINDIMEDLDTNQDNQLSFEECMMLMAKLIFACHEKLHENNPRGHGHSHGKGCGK
# Assay: co-IP; nuclear extracts of BCG-elicited mouse neutrophils incubated with anti-S100A9 antibody (or control rabbit IgG) overnight at 4°C; protein G-Sepharose beads; washed thrice with ChIP dilution buffer; immunoblot with anti-C/EBPβ, anti-p65 and anti-S100A9
row,Substance,binding
1,C/EBPβ (from UniProt P28033 1-296),binds
2,nuclear factor κB component p65 (from UniProt Q04207 1-549),no binding
